Experimental data: paper PMC10193809, “A small protein coded within the mitochondrial canonical gene nd4 regulates mitochondrial bioenergetics” (BMC Biology, 2023)
Results are given in words; binding and its absence hold for the method and conditions named. In cells and extracts the contact can be indirect. Some results given as binding are weak or reduced against the parent protein; the word gives no strength. Where a sequence is shown, tags or fusion partners need not be part of it.

Amino acid sequences for entries named in this document (tags omitted). Residues count along the entry.
UniProt Q07021, residues 74-282: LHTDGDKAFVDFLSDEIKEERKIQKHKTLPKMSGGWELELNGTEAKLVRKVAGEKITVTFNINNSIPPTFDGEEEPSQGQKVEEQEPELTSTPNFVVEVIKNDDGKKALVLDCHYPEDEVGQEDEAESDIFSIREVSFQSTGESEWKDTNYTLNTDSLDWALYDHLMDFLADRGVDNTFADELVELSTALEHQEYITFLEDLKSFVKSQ

Target: T1, GST-MTALTND4 (human)
T1 sequence: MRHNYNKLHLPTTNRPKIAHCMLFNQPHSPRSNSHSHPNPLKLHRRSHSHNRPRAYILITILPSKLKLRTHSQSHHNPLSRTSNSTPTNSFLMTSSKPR
Assay: pull-down; GST-MTALTND4 or GST alone on glutathione beads with HeLa or HEK-293T lysate; eluates blotted with anti-C1qbp antibody; only the target purified

“complement component 1q subcomponent binding protein (C1qbp) (from UniProt Q07021 74-282)” was tested, and the binding was “binds”.
